Our source for the z-score values is PubChem BioAssay AID1508600 (Functional Genomics Laboratory (NCATS/FGL), 2020).

In all, about 53,000 sequences went through this assay and about 3,700 (7%) were called active.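 How the source made its calls: active means gene knockdowns whose robust z-score for IL-1 alpha signal is at least 2 or at most -2, so actives lie on both sides; inactive means the rest.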 This is one part of the list.

A short description of this experiment: Components of the Cytosolic LPS Sensing Pathway: Gene Identification via Genome-wide siRNA Screen.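 Further: robust z of the log signal after scaling to non-targeting control siRNA wells of the plate.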 The settings on record: RAW264.7 macrophages, IL-1a HTRF, actives lie on both sides, screened at 100 nM (by protocol), cells primed 5 h with Pam3CSK4 first. An outline of the steps: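 Using IL-1a HTRF as read-out, the screen measured release from RAW264.7 cells after 48h siRNA knockdown (100 nM), 5 h Pam3CSK4 priming and 24 h cytosolic LipidA. Values were expressed relative to negative-control wells as robust z-scores.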
For the sequence GGAGCCUGUCUUUUAUUGATT against Olfr938, the z-score was inactive: 0.0765. In the case of GGGAUGCACUGAGUGAAGATT against Scg2, the z-score was inactive: -0.319. For the sequence GGAAAUUGUACUCUCCACATT against Pdzd11, the z-score was inactive: -0.941. On to CUCUGAACGACCUAUACCUTT against Cebpd, for which the z-score was inactive: -1.21. For CCAAGCUAGUCCUCAAGCUTT against Snapc2 the value was inactive: -1.16; for GGAACUACAGAAUUUAUUGTT against Rfx6, inactive: 0.628; for GGUCUAUGUGUGGAUGGAATT against Crb1, inactive: 1.83.

Regarding GGAUUCACACAGAGGUAAATT against Zfp169, the z-score was inactive: -0.215. Turning to GCCGACAGAUCGUCUUGAUTT against Tmc4, the z-score is inactive: 1.31. GGUUUGAAAGUUCUUUUGUTT against Dph3: the z-score was inactive: -0.35. For GGCAUUUCAGGUUCAUGGATT against Zfp101, the z-score is inactive: 0.0509. Take CCCUGACACUAAUUUUCCUTT against Nagpa: the z-score is inactive: 0.446.

CGUUUAUGAAGUGAAAGAUTT against Mrpl37: the z-score is inactive: -0.636. On to CCAGAUGAACGGGACAAACTT against Cited2, for which the z-score is inactive: 0.769. For GGUGCCAGAUGUCAAGAAATT against Rpn2 the value was inactive: -0.685.

As for GGGAAUGUGGAAGAGUUCCTT against Atg4c, the z-score is inactive: 0.896. GCAGUAGCUGAAUUUUUUATT against Cnot10: the z-score was inactive: -1.43. On to GGAAGAAGAAGACCAGGGATT against Parvb, for which the z-score was inactive: -0.0188.

In the case of CGGAUAUGAAUUUUUUGCUTT against Ppp1cb, the z-score was inactive: 0.116. Turning to CCUGAUCGUCAUCUAUACCTT against Irs3, the z-score is inactive: -1.73. Turning to GCGAAUUCAUGUUUGAGGATT against Foxf2, the z-score is inactive: 0.023. For GGUUCCAGCUAAUAGCCUGTT against Plekhj1 the value was inactive: 0.175; for GGCUUGGUAUGAUGCGCACTT against Rbm12, inactive: 0.486. As to CCUCAUCAAAAUUUACCAUTT against Fcrls, the z-score is inactive: -0.638.

Take AACUCCCUCCCUGUUGUAGTT against A4galt: the z-score was inactive: -0.361.

Turning to CCAUAUUUAAGUCCCUGUCTT against Pim1, the z-score was inactive: -1.1.

For GGUCUAUGUACUCGCCAAATT against Sirpa, the z-score is inactive: -0.271. In the case of GGAUAUUAUCUUCAGACCATT against Slc15a5, the z-score was inactive: -0.628.

GGAAAAUUGGGAAAAUGUGTT against Sell: the z-score was inactive: -0.712. Regarding GGAAGUUGAUAAGAGAGUGTT against Esco2, the z-score is inactive: -0.524. As to GCUAAAUUUACUUGUAUGGTT against Cd46, the z-score was inactive: -0.349. For the sequence GGAGAAAGCCUUCCUUAGUTT against Trpc5, the z-score was inactive: -0.115. For the sequence GCAAAUCCCAGUCUCACCATT against Tmem88, the z-score was inactive: -1.43.

GGAAGAUACUAAUAGAGUATT against Enpep: the z-score is inactive: -0.00304. For GCAUACAGAUUUACACCUGTT against Rhox11, the z-score was inactive: -0.524. On to GGAAAGAGCCAUCCUUUGATT against Gnmt, for which the z-score was inactive: -0.186.

Consider GGCUCUUCUUAUGCACCCUTT against Pdyn, for which the z-score was inactive: -0.543.

In the case of CCACCAAUCCCAUCCAAAUTT against Sox2, the z-score is inactive: -0.279.

On to GGACAAUUGGAAGAUUUGGTT against Ccdc88a, for which the z-score was inactive: -1.23. On to GCUUGAAUACCAUCAGUCATT against Kank4, for which the z-score was inactive: 0.069. As to GCCUUUCUACAGGUCUCUCTT against Asb18, the z-score is inactive: -0.699.

Consider GGGUUGAUAGCAGAUAUCCTT against Cd52, for which the z-score was inactive: -0.501.

Regarding GGGAAGGAUAUCAUUGUGCTT against Olfr920, the z-score is inactive: -1.84. GGCUUUGAGCCCGAAAAUCTT against Zfpm2: the z-score was inactive: 0.742.

As to CCUGAUUGUCUUCAAUGGGTT against Cant1, the z-score was inactive: -0.84. For GGAGCAAGGCUACAUUUUUTT against Itih3 the value was inactive: 1.36; for GGUCGAAUGACUCAUCUUATT against Hs3st3a1, inactive: 0.335.

GCAUCCUGUGAGGUCUAUCTT against Zfp316: the z-score is inactive: 1.16. For UUGGUUCAACUGCAUCGAATT against Olfr872 the value was inactive: 0.44.

“GCCGGAAACUCAAGAUAGCTT against F830208F22Rik”: the z-score was inactive: -0.74.

For GGAGGAAUGGAUGAACAAATT against Flcn, the z-score was inactive: 1.02. With CCAAAAUCGAUAAUUCCCUTT against Acvr1, the z-score was inactive: -0.00779. Take GGCCCAAUGCUGUAAAUAUTT against Hoxb5: the z-score is inactive: -0.835.

As for GCAGAUCAAUGGAUUCACCTT against Olfr57, the z-score was inactive: -1.51. For GGUGUUUCAGGUAUUGAAUTT against Ttk the value was inactive: 0.703. For GGCAUUAGGAUACAUAACATT against Rpgrip1l the value was inactive: -0.743; for CGGGAAGAGUACUUGUUUUTT against Cfl1, inactive: 0.153; for GGAAGAUGUUAAGAGUUACTT against Slc1a3, inactive: -0.865. For GGGUUGGUACCUAAGAAUGTT against E2f4 the value was inactive: 0.0189; for CCCGGUUGUCUGGAUAUGATT against Map3k3, active: -2.39. In the case of GGAAGAAUUGCUUUGCCUCTT against Krt35, the z-score was inactive: 0.163. On to GGAGCUGAAGAUGAGUUUGTT against Abhd4, for which the z-score is inactive: -0.115. As to GGCCUACUUUGAUGUUAAATT against Cdc23, the z-score is inactive: 0.319. GCCACUACGCUCUACUGCATT against Emc1: the z-score was inactive: -0.538. Regarding CGCCAUUUACACUUCCUGCTT against Sval2, the z-score was inactive: -0.622. Consider GGUCGCCUACAAAAAAAAATT against Aldh1l1, for which the z-score was inactive: 0.542. Take GCUCAUUAUUAAACUUACCTT against Tfrc: the z-score is inactive: 1.44. Turning to GGUGCCUUCCAAAAUUACGTT against Slc22a7, the z-score is inactive: 0.963. As for GGAUAAUCGAAUUGAUUGUTT against Tmem30a, the z-score is inactive: 0.751. On to GGCAACAGUAUUUAUGAAUTT against Sim2, for which the z-score is inactive: -0.45. On to GCUAAAUGAGAACAACUCGTT against Trappc2, for which the z-score was inactive: 0.0562. GGAAUUGGAUGUGAGCAACTT against Vasn: the z-score was inactive: 0.586. As to GGAUAAAGGACGAUGAGAUTT against Tmem63b, the z-score was inactive: 0.586. In the case of GGAUACCAUCAUUGAUGUCTT against Dmap1, the z-score is active: -2.29.

Turning to GCUGGGUGAUAAACAAUGUTT against Rhbg, the z-score was active: 3.42. For the sequence GGCUGUGCUCUCACUCUAUTT against Actg2, the z-score was inactive: -0.426. For GGUAAAUGAUCUGAAAAUGTT against Rps6ka6 the value was inactive: -0.46; for GCUAGGAAUGAUGUGAGGCTT against Ppp5c, inactive: -1.26; for GGACUGCUUGUGGUAUCUGTT against Shisa4, inactive: -1.94.

Turning to GCCGGAAGGCCAUUUAUAATT against Acadsb, the z-score is inactive: 0.51. For the sequence GGCGGUAUUUUGCUGAUUUTT against Ccnj, the z-score was inactive: -0.101. Turning to GGAAGAGGUUAGCAAGCAUTT against Iws1, the z-score is active: 2.27. For CCAUAGACUAUUAUCCUUATT against Uhrf1bp1l the value was inactive: -0.282. In the case of GGAAUACGGAUUGAUGGAGTT against Fli1, the z-score is active: 2.19. Turning to GCAACUCGACUGGUACUCUTT against Peg10, the z-score was inactive: 0.874. Turning to GGAGCUGAAUGAAAACCAGTT against Taok1, the z-score is inactive: -0.809. As to CGUGUAUCUAGUCAUACGGTT against Tap2, the z-score is inactive: -0.172. Regarding GCACAAGCUGAAGAAGUCATT against S100b, the z-score is inactive: 0.295. For GAGCCAUAUACCUCGUCCUTT against Mier2 the value was inactive: -0.531; for GGGAGAGACAUAUAUCCUGTT against Snhg11, inactive: 0.107. Consider GAAAAGCCUAUGUAACUUCTT against Iltifb, for which the z-score is inactive: 1.5.

CCAGUGAAGGUUUACUACUTT against Mrpl1: the z-score is inactive: 0.0287. On to GGAAAUCUACGAUUUCUAATT against Cyria, for which the z-score was active: 2.55. For GGAUAAUCUUGCUGAAAACTT against Clec11a the value was inactive: 0.5; for GGGAGGUCAAAAACUUCCATT against Coq3, inactive: -0.485. For GCUGGUGACUUGUAAAAGCTT against Meox1 the value was inactive: -0.0787; for GGACUGCAUCCAAAUUCCATT against Dynll1, inactive: 0.298; for GGCCUGGAGAAAAAACUUATT against Sfpq, inactive: 0.913. In the case of CCAUUUGAAGAGUAUUCCCTT against Lrrc2, the z-score is inactive: 0.0362. CCCAGCUCACGUAUUUAUUTT against Pgf: the z-score is inactive: 0.173.

Take GGAAAGACUGCCUAUUCUGTT against Plin2: the z-score is inactive: 0.515.

Turning to CGAGAAAAACAACUCCUUUTT against Foxj3, the z-score is inactive: -0.0817. Take GGGUCAGUUCAUAUGCCUCTT against Laptm5: the z-score is inactive: 0.569. On to GGCAUGAGCUAUCAGGACUTT against Efcab6, for which the z-score was inactive: 1.37. In the case of CCACGAGUAGUAAAAAAUATT against AI504432, the z-score was inactive: -0.654. On to CCGUGAGGAUUUCAAGCGATT against P2ry6, for which the z-score was inactive: 0.00646. For GGUGUAUGAAUCUGUGCUGTT against Cldn5 the value was inactive: -0.647.
